Some targets named below: Lysozyme; Soy Trypsin Inhibitor; β-defensin.
Common to all, as to experiment: Biacore 8K SPR, antibody over immobilised protein
(In SPR one partner is held on a chip, and binding of the other changes the refractive index at the surface.)

Results are given in words; binding and its absence hold for the method and conditions named.

B1: TMEB762 (antibody, human IgG4 S228P, kappa, F234A L235A, V domains shown)
VH: EVQLLESGGGLVQPGGSLRLSCAASGFTFSSYSMSWVRQAPGKGLEWVSVISGSGGFTDYADSVKGRFTISRDNSKNTLYLQMNSLRAEDTAVYYCARMPLNSPHDYWGQGTLVTVSS
VL: DIQMTQSPSSLSASVGDRVTITCRASQGIRNDLGWYQQKPGKAPKLLIYAASSLQSGVPSRFSGSGSGTDFTLTISSLQPEDFATYYCLQDYNYPLTFGGGTKVEIKR
For the molecule B1, the binding entry with Lysozyme, with Soy Trypsin Inhibitor and in the test with β-defensin was “no binding (tested: response unit ≥100 predicts high risks)” each time.

B2: CD3B376 (antibody, human IgG4 S228P, lambda, F234A L235A, V domains shown)
VH: QVQLQQSGPRLVRPSQTLSLTCAISGDSVFNNNAAWSWIRQSPSRGLEWLGRTYYRSKWLYDYAVSVKSRITVNPDTSRNQFTLQLNSVTPEDTALYYCARGYSSSFDYWGQGTLVTVSS
VL: QSALTQPASVSGSPGQSITISCTGTSSNIGTYKFVSWYQQHPDKAPKVLLYEVSKRPSGVSSRFSGSKSGNTASLTISGLQAEDQADYHCVSYAGSGTLLFGGGTKLTVLG
As for B2, the binding entry with Lysozyme, with Soy Trypsin Inhibitor and with β-defensin was “no binding (tested: response unit ≥100 predicts high risks)” each time.
